According to publication PMC10352271:
No constants are given. Whether binding was seen depends on the method and setting. For some assays here: Binding seen in cells or lysates may run through a third protein. Some entries that bind do so weakly or less than the wild type.

What was measured:
[1] = molecular target: eukaryotic translation initiation factor 4B (EIF4B) (human (endogenous in LN229)) (UniProt P23588); assay: co-IP; immunoprecipitation from LN229 cells with an anti-EIF4B antibody; hnRNPK detected by western blotting
[2] = molecular target: EIF4B recombinant protein (UniProt P23588); assay: far-Western, overlay or dot blot; EIF4B recombinant protein (10 ug) on 10% SDS-PAGE, transferred to PVDF, denatured and renatured in AC buffer (100 mM NaCl, 20 mM Tris-HCl pH 7.6, 0.5 mM EDTA, 10% glycerol, 0.1% Tween-20, 2% non-fat milk, 1 mM DTT); membrane incubated with 1 ug/ml recombinant hnRNPK at 4 C overnight; detected with anti-hnRNPK antibody; BSA loaded as negative control; both purified

Row | Substance | binding [1] | binding [2]
1 | hnRNPK (from UniProt P61978 1-463) | binds | 
2 | recombinant hnRNPK protein (from UniProt P61978 1-463) |  | binds
